Experimental data as given in patent publication EP3925949A1, “AZIDO COMPOUNDS AND METHOD FOR MONITORING ACID CERAMIDASE ACTIVITY IN INTACT CELLS USING THEM” (Consejo Superior de Investigaciones Científicas (CSIC), priority 2020, dated 2021).
Values joined by “and” are separate entries in the source; they are usually repeats but may differ in a detail not shown here. Identical values can stand only once.

What was measured:
[1] = tested on: lysosomes; test: Confocal co-localization of probe/CO-1 staining with Lysotracker; type: cell-based; details: for lysosome staining after 5 h chase: 5 h incubation in fresh medium after the probe pulse, prior to CO-1
[2] = tested on: mitochondria; test: Confocal co-localization of probe/CO-1 staining with Mitotracker; type: cell-based; details: for Manders' M1 coefficient / Pearson's (P) coefficient / Manders' M2 coefficient: probe 5 µM 4 h
Protocol: Cells were seeded at 1 × 10^5 cells/mL on glass-bottom plates and allowed to adhere for 24 h. For golgi staining, cells were incubated with 40 µL/well of CellLight Golgi-RFP BacMam 2.0 for 24 h. Medium was replaced with fresh medium containing RBM5-177, RBM5-019, RBM2-37 or RBM2-31 (5 µM final concentration) and cells were incubated for 20 min at 37 °C. After this time, the medium was replaced with fresh medium containing CO-1 (1 µM final concentration), and cells were incubated for 10 min. Then cells were washed 3 times with DMEM for 5 min at 37 °C, 75 nM LysoTracker Red DND-99 or 75 nM Mitotracker in phenol red-free DMEM was added to stain lysosomes or mitochondria, and cells were kept in the incubator for microscope analysis. Staining was viewed with a Zeiss LSM 880 confocal microscope or Leica TCS SP8-Hyvolution. Image analysis was performed using Fiji software.^[7] To measure the Manders's and Pearson's coefficients a threshold including organelles and discarding the background was set. Co-localization coefficients were measured using the JaCoP plugin (S. Bolte et al. J. Microsc. 2006, 224, 213-232) on the different stacks of images (at least n=4) with each stack containing 3-10 cells.

[3] = Fig. 2A/C, A549 cells, probe 5 µM 20 min, CO-1 1 µM 10 min, no chase
[4] = Fig. 2B/D, A549 cells, probe 5 µM 20 min, then medium for 5 h before CO-1
[5] = Fig. 7, A375/+Dox with SOCLAC (5 µM, 1 h), probe 5 µM 20 min
[6] = Fig. 7, A375/+Dox with vehicle, probe 5 µM 20 min
[7] = Fig. 7, A375/-Dox with vehicle, probe 5 µM 20 min
[8] = Fig. 3A, FD and FD/AC cells (cell type of the coefficients not specified), probe 5 µM 4 h
[9] = Fig. 3B, A375 cells +Dox or -Dox (not specified), probe 5 µM
[10] = Fig. 4, A375/+Dox, probe 5 µM 4 h, with FB1 (100 µM, 24 h)
[11] = Fig. 4, A375/+Dox, probe 5 µM 4 h, with vehicle
[12] = Fig. 8, A375/+Dox with FB1 (100 µM, 24 h)

C[C@H](N)[C@H](O)CCCCCCCCCCCCN=[N+]=[N-] [RBM5-019, (2S,3R)-2-Amino-15-azidopentadecan-3-ol]
lysosome staining after 5 h chase ([1]; A549 cells): largely remained in the lysosome after the 5 h chase | Manders' M1 coefficient [1, 3]: 0.670 | Manders' M2 coefficient [1, 3]: 0.774 | Pearson's (P) coefficient [1, 3]: 0.713 | Manders' M1 coefficient [1, 4]: 0.735 | Manders' M2 coefficient [1, 4]: 0.688 | Pearson's (P) coefficient [1, 4]: 0.762 | Manders' M1 coefficient [1, 5]: 0.810 | Manders' M2 coefficient [1, 5]: 0.795 | Pearson's (P) coefficient [1, 5]: 0.863 | Manders' M1 coefficient [1, 6]: 0.836 | Manders' M2 coefficient [1, 6]: 0.730 | Pearson's (P) coefficient [1, 6]: 0.869 | Manders' M1 coefficient [1, 7]: 0.829 | Manders' M2 coefficient [1, 7]: 0.733 | Pearson's (P) coefficient [1, 7]: 0.845 | Manders' M1 coefficient ([2]; Fig. 8, A375/+Dox with vehicle): 0.179 | Pearson's (P) coefficient ([2]; Fig. 8, A375/+Dox with vehicle): 0.298 and 0.355 | mitochondria staining ([2]; RBM5-19/CO-1 labelling system, all conditions tested (Fig. 8)): no mitochondria staining

CCCCCCCC(=O)N[C@@H](C)[C@H](O)CCCCCCCCCCCCN=[N+]=[N-] [RBM5-177, N-((2S,3R)-15-azido-3-hydroxypentadecan-2-yl)octanamide]
lysosome staining after 5 h chase ([1]; A549 cells): staining remained stable with high co-localization with Lysotracker | Manders' M1 coefficient [1, 3]: 0.866 | Manders' M2 coefficient [1, 3]: 0.744 | Pearson's (P) coefficient [1, 3]: 0.802 | Manders' M1 coefficient [1, 4]: 0.822 | Manders' M2 coefficient [1, 4]: 0.711 | Pearson's (P) coefficient [1, 4]: 0.746 | Manders' M1 coefficient [1, 8]: 0.631 | Manders' M2 coefficient [1, 8]: 0.760 | Pearson's (P) coefficient [1, 8]: 0.725 | Manders' M1 coefficient [1, 9]: 0.723 | Manders' M2 coefficient [1, 9]: 0.713 | Pearson's (P) coefficient [1, 9]: 0.754 | Manders' M1 coefficient [1, 10]: 0.717 | Manders' M2 coefficient [1, 10]: 0.761 | Pearson's (P) coefficient [1, 10]: 0.841 | Manders' M1 coefficient [1, 11]: 0.791 | Manders' M2 coefficient [1, 11]: 0.778 | Pearson's (P) coefficient [1, 11]: 0.816 | Manders' M1 coefficient [2, 12]: 0.059 | Manders' M2 coefficient [2, 12]: 0.043 | Pearson's (P) coefficient [2, 12]: 0.224 | Manders' M1 coefficient ([2]; Fig. 8, A375/+Dox with vehicle): 0.194 | Manders' M2 coefficient ([2]; Fig. 8, A375/+Dox with vehicle): 0.697 | Pearson's (P) coefficient ([2]; Fig. 8, A375/+Dox with vehicle): 0.355
